Binding data for two substances are collected here from PMC12376677.

By UniProt entry, the sequences of proteins in these tests, tags left out.
UniProt O75925: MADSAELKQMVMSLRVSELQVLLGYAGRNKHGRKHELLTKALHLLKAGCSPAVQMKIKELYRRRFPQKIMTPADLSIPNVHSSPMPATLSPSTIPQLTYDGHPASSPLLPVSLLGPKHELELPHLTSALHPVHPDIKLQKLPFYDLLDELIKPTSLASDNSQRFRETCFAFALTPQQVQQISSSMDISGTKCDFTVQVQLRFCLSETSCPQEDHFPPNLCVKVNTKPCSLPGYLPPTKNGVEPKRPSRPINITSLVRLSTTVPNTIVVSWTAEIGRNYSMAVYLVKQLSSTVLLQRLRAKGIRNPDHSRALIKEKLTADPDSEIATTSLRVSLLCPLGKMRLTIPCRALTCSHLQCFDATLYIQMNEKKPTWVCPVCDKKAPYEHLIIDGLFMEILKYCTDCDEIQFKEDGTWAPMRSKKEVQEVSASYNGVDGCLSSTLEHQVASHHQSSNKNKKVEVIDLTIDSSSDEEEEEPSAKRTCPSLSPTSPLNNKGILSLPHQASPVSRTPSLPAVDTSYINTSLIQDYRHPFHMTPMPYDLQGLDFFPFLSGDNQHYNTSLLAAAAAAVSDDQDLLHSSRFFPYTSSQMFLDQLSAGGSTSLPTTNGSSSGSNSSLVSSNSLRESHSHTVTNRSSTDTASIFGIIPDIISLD

No constants are given. Whether binding was seen depends on the method and setting. In cells and extracts the contact can be indirect. Some entries that bind do so weakly or less than the wild type. For some assays here: Sequences can lack the tags named with a protein.

The target of test [1] is T1, FLAG-tagged DHX36 with deletion of 747–779 aa (UniProt Q9H2U1).
T1 sequence: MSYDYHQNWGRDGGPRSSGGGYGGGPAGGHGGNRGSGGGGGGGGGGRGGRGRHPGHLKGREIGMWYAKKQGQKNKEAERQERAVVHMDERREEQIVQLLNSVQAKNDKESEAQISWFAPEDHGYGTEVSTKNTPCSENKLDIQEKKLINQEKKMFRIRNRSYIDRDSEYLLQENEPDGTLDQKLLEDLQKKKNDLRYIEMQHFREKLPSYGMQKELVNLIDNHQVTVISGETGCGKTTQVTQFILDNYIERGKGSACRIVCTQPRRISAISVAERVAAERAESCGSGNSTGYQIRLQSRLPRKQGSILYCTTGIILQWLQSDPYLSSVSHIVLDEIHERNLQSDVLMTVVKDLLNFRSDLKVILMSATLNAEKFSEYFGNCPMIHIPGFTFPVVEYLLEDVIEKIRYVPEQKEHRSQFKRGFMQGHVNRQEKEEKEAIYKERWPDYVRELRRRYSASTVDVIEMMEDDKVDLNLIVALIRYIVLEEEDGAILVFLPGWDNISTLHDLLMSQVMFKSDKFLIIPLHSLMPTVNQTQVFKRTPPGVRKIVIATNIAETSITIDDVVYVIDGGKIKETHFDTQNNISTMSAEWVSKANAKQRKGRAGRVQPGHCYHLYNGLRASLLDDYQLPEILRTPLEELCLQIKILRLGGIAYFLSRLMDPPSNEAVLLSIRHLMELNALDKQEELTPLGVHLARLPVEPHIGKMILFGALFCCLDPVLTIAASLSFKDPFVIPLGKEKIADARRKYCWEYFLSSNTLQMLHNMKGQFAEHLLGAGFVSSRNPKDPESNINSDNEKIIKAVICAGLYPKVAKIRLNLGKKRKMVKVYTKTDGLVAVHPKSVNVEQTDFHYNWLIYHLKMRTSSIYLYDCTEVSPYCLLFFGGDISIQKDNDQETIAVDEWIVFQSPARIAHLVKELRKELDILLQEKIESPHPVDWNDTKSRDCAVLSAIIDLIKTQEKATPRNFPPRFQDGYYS
In words: co-IP; FLAG-DHX36 (WT or 747-779 deletion) co-transfected with HA-PIAS1 in SKOV3 cells; text: FLAG co-IP; legend: anti-HA co-IP, FLAG blot.

Test [2] addresses T2, DHX36 (human (endogenous in SKOV3 or COV504 cells)) (UniProt Q9H2U1).
T2 sequence: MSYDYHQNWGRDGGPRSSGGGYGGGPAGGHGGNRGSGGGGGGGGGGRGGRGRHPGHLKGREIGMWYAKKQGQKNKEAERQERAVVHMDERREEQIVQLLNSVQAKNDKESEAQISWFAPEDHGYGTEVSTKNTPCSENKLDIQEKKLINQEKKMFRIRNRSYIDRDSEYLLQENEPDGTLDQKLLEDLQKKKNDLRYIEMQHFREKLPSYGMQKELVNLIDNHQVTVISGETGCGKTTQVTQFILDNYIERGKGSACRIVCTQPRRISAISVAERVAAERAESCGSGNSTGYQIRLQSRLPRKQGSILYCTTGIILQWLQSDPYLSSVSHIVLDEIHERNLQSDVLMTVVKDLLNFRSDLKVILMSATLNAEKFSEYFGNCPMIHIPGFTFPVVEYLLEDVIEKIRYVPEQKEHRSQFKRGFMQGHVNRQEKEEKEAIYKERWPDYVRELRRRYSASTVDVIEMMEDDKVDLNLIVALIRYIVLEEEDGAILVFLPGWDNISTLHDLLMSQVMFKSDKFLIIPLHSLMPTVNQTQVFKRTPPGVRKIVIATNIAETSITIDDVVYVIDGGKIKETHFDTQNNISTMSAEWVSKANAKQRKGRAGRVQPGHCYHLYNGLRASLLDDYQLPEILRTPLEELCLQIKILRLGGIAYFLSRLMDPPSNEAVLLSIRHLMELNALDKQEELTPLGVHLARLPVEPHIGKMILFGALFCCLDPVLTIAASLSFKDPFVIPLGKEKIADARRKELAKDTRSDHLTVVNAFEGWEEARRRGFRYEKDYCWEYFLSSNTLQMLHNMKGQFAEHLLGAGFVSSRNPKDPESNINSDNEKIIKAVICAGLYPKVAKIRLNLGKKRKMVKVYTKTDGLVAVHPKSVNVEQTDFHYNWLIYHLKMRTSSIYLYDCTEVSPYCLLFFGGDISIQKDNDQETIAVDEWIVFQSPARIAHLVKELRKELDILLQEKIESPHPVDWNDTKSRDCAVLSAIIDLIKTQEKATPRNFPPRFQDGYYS
In words: co-IP; endogenous proteins; anti-DHX36 or anti-PIAS1 antibody, Dynabeads Protein G; lysis buffer 50 mM Tris-HCl pH 8.0, 150 mM NaCl, 1% NP40, 1 mM DTT; western blot; also in cells overexpressing lncRNA CATED (more co-precipitate).

Turning to HA-PIAS1 (from UniProt O75925 1-651), in test [1], the binding entry is recorded as “no binding”.
As to PIAS1 (from UniProt O75925 1-651), the binding entry in test [2] was “binds”.
